Experimental data: EP4699610A1, “PHARMACEUTICAL COMPOSITION FOR TREATING GLIOMA” (SymBio Pharmaceuticals Limited, priority 2023, dated 2024)
For at least one compound, name, drawing or mass did not settle the structure.

System: U87MG human glioblastoma (GBM) cell line
Assay: BCV and TMZ combination in U87MG GBM animal model, BLI and survival rate (Example 2)
Settings: 2 mg/kg TMZ monotherapy, orally daily for 5 days from day 8

Cn1nnc2c(C(N)=O)ncn2c1=O [TMZ, temozolomide] was tested. Which “growth of intracerebral GBM (normalized BLI) compared to the vehicle group” value did it give?
The value was “tendency to suppress the growth of intracerebral GBM compared to the vehicle group, although the difference was not statistically significant”.
